Test results as given in article PMC12696100.

The chains behind the UniProt entries cited, without tags or fusion partners.
UniProt O75165: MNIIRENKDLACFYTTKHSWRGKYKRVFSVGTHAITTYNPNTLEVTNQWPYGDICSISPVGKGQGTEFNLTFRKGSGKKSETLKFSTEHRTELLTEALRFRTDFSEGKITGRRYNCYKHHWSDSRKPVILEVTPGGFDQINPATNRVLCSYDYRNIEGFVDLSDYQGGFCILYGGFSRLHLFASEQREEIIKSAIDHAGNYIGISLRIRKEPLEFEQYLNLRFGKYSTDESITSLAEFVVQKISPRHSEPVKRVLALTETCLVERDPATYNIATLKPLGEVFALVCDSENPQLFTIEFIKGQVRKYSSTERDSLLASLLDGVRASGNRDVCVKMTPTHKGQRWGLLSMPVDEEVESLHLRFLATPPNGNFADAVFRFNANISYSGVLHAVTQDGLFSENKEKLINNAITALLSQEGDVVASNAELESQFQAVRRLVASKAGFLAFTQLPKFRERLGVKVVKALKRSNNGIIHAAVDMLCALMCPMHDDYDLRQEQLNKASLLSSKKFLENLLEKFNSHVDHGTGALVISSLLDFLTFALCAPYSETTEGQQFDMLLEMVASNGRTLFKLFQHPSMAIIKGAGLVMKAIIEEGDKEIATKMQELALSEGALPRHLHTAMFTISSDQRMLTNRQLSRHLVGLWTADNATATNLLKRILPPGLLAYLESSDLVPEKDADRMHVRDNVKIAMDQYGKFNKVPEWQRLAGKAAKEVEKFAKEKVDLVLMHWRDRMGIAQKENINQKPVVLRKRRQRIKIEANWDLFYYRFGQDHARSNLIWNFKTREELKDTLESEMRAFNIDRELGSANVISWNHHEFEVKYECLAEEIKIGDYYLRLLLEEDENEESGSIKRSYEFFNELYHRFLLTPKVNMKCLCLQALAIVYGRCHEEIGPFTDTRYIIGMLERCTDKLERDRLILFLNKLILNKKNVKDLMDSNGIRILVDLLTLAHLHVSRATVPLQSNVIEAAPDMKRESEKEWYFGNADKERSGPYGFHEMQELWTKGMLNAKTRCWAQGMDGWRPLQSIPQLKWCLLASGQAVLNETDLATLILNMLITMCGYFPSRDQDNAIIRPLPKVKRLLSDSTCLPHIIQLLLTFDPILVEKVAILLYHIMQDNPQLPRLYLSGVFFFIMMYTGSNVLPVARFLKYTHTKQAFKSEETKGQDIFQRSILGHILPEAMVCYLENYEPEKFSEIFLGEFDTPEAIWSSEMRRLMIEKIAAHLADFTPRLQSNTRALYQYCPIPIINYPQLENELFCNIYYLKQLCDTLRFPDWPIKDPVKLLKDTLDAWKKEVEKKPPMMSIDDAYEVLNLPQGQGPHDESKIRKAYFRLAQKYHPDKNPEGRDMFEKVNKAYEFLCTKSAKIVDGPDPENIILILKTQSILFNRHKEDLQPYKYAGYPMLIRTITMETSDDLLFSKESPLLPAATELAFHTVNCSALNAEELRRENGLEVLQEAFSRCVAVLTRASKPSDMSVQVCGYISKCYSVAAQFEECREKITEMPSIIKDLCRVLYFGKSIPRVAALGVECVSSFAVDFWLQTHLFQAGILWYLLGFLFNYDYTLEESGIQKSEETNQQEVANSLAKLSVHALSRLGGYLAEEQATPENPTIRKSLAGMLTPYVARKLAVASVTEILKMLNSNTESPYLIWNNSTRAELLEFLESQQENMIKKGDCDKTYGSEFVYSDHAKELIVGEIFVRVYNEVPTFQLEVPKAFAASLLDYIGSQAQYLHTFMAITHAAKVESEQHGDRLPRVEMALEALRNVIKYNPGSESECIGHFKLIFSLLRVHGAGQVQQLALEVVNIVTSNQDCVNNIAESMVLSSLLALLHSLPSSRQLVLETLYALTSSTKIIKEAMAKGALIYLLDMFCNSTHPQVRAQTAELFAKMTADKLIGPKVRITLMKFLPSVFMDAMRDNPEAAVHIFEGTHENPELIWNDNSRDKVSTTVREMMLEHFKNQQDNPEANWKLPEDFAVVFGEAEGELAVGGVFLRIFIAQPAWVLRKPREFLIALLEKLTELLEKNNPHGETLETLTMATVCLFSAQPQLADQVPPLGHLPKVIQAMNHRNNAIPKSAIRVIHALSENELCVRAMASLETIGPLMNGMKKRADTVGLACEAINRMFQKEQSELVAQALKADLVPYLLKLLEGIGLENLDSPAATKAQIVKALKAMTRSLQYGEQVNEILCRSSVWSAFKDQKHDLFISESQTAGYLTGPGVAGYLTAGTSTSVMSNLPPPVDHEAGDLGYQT
UniProt Q9BXW9: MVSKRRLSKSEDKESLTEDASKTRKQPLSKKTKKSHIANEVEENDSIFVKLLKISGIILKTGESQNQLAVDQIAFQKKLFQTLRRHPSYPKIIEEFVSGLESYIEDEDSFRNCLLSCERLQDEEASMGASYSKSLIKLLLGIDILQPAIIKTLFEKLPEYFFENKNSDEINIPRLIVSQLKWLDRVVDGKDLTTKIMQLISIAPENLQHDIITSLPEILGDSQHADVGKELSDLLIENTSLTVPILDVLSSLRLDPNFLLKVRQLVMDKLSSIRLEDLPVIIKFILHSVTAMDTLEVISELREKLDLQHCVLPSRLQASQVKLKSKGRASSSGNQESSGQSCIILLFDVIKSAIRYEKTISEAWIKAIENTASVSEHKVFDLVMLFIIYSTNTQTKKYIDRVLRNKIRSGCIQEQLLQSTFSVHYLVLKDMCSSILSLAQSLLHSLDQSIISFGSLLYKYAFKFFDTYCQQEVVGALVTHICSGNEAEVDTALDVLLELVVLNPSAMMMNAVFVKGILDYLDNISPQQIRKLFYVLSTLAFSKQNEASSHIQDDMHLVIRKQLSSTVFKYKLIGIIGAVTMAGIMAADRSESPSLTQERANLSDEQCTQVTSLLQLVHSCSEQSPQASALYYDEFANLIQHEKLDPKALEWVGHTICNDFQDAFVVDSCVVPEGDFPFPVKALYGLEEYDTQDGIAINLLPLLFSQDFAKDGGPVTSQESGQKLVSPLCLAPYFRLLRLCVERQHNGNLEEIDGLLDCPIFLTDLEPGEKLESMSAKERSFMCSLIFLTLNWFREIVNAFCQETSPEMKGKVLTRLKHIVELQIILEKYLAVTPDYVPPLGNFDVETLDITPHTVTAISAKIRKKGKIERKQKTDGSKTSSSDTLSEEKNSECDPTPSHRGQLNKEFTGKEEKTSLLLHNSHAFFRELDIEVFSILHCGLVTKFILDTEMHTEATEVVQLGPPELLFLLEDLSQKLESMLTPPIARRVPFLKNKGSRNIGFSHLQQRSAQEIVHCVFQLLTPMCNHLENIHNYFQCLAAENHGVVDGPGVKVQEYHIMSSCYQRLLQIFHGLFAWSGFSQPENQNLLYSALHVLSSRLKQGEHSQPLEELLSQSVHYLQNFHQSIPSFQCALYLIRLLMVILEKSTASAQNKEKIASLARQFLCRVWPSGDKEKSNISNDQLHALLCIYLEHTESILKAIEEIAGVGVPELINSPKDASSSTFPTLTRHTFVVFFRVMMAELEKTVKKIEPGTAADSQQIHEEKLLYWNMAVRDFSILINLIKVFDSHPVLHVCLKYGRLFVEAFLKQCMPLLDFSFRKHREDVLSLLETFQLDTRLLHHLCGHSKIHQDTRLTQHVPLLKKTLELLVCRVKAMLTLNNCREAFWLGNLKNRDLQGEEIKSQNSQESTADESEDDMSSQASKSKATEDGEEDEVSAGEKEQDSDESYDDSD
UniProt O75925: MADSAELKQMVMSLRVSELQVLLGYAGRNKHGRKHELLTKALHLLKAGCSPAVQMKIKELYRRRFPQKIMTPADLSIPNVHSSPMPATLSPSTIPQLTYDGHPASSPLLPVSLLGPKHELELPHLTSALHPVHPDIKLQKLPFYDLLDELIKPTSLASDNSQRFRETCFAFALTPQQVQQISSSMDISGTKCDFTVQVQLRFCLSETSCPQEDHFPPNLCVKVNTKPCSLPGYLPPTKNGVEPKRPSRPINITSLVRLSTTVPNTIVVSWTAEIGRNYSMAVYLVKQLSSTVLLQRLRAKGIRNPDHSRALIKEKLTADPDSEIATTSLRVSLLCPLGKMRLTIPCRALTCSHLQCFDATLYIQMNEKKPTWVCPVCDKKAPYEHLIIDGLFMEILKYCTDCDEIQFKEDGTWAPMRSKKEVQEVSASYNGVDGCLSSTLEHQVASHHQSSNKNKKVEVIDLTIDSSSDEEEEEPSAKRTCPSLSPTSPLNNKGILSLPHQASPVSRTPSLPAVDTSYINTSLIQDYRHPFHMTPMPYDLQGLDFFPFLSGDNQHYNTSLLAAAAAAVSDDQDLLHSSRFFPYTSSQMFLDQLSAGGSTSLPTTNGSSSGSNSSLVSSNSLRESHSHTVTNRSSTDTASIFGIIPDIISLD
UniProt P25490: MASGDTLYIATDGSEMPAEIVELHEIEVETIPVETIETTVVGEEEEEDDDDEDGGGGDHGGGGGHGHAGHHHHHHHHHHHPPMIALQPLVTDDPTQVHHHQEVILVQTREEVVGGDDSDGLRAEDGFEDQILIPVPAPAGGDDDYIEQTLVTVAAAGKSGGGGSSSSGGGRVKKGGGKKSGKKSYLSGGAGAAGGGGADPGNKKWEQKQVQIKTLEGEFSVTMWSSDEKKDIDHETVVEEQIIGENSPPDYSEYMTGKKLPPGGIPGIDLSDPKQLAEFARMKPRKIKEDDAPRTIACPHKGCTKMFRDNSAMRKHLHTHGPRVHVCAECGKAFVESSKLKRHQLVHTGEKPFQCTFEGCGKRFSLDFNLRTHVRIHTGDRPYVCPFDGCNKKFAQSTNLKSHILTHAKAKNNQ

T1: Flag-hRFWD3-C315A (RING domain mutated RFWD3) (human) (UniProt Q6PCD5)
T1 sequence: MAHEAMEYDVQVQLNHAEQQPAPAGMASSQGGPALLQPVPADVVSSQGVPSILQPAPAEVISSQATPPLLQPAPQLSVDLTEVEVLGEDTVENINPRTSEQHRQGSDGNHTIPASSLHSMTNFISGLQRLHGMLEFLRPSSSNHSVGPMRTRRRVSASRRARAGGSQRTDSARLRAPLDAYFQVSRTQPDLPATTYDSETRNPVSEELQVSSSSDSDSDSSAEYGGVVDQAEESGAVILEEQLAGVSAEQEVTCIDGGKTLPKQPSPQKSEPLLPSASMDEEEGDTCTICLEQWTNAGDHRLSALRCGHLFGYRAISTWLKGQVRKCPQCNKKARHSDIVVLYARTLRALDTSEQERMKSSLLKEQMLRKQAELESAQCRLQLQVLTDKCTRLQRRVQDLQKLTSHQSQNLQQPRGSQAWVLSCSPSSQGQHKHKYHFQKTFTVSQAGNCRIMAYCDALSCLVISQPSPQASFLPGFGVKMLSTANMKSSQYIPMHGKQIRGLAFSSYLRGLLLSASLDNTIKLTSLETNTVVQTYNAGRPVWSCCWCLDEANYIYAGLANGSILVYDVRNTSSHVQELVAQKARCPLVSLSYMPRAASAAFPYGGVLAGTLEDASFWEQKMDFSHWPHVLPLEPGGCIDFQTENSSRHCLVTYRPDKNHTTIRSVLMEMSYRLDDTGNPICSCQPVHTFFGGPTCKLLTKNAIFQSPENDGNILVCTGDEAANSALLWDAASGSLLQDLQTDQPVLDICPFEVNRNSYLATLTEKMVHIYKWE

B1: GTF3C4 (protein, UniProt Q9UKN8 1-822)
chain: MNTADQARVGPADDGPAPSGEEEGEGGGEAGGKEPAADAAPGPSAAFRLMVTRREPAVKLQYAVSGLEPLAWSEDHRVSVSTARSIAVLELICDVHNPGQDLVIHRTSVPAPLNSCLLKVGSKTEVAECKEKFAASKDPTVSQTFMLDRVFNPEGKALPPMRGFKYTSWSPMGCDANGRCLLAALTMDNRLTIQANLNRLQWVQLVDLTEIYGERLYETSYRLSKNEAPEGNLGDFAEFQRRHSMQTPVRMEWSGICTTQQVKHNNECRDVGSVLLAVLFENGNIAVWQFQLPFVGKESISSCNTIESGITSPSVLFWWEYEHNNRKMSGLIVGSAFGPIKILPVNLKAVKGYFTLRQPVILWKEMDQLPVHSIKCVPLYHPYQKCSCSLVVAARGSYVFWCLLLISKAGLNVHNSHVTGLHSLPIVSMTADKQNGTVYTCSSDGKVRQLIPIFTDVALKFEHQLIKLSDVFGSVRTHGIAVSPCGAYLAIITTEGMINGLHPVNKNYQVQFVTLKTFEEAAAQLLESSVQNLFKQVDLIDLVRWKILKDKHIPQFLQEALEKKIESSGVTYFWRFKLFLLRILYQSMQKTPSEALWKPTHEDSKILLVDSPGMGNADDEQQEEGTSSKQVVKQGLQERSKEGDVEEPTDDSLPTTGDAGGREPMEEKLLEIQGKIEAVEMHLTREHMKRVLGEVYLHTWITENTSIPTRGLCNFLMSDEEYDDRTARVLIGHISKKMNKQTFPEHCSLCKEILPFTDRKQAVCSNGHIWLRCFLTYQSCQSLIYRRCLLHDSIARHPAPEDPDWIKRLLQSPCPFCDSPVF
B2: TONSL (protein, UniProt Q96HA7 1-1378)
chain: MSLERELRQLSKAKAKAQRAGQRREEAALCHQLGELLAGHGRYAEALEQHWQELQLRERADDPLGCAVAHRKIGERLAEMEDYPAALQHQHQYLELAHSLRNHTELQRAWATIGRTHLDIYDHCQSRDALLQAQAAFEKSLAIVDEELEGTLAQGELNEMRTRLYLNLGLTFESLQQTALCNDYFRKSIFLAEQNHLYEDLFRARYNLGTIHWRAGQHSQAMRCLEGARECAHTMRKRFMESECCVVIAQVLQDLGDFLAAKRALKKAYRLGSQKPVQRAAICQNLQHVLAVVRLQQQLEEAEGRDPQGAMVICEQLGDLFSKAGDFPRAAEAYQKQLRFAELLDRPGAERAIIHVSLATTLGDMKDHHGAVRHYEEELRLRSGNVLEEAKTWLNIALSREEAGDAYELLAPCFQKALSCAQQAQRPQLQRQVLQHLHTVQLRLQPQEAPETETRLRELSVAEDEDEEEEAEEAAATAESEALEAGEVELSEGEDDTDGLTPQLEEDEELQGHLGRRKGSKWNRRNDMGETLLHRACIEGQLRRVQDLVRQGHPLNPRDYCGWTPLHEACNYGHLEIVRFLLDHGAAVDDPGGQGCEGITPLHDALNCGHFEVAELLLERGASVTLRTRKGLSPLETLQQWVKLYRRDLDLETRQKARAMEMLLQAAASGQDPHSSQAFHTPSSLLFDPETSPPLSPCPEPPSNSTRLPEASQAHVRVSPGQAAPAMARPRRSRHGPASSSSSSEGEDSAGPARPSQKRPRCSATAQRVAAWTPGPASNREAATASTSRAAYQAAIRGVGSAQSRLGPGPPRGHSKALAPQAALIPEEECLAGDWLELDMPLTRSRRPRPRGTGDNRRPSSTSGSDSEESRPRARAKQVRLTCMQSCSAPVNAGPSSLASEPPGSPSTPRVSEPSGDSSAAGQPLGPAPPPPIRVRVQVQDHLFLIPVPHSSDTHSVAWLAEQAAQRYYQTCGLLPRLTLRKEGALLAPQDLIPDVLQSNDEVLAEVTSWDLPPLTDRYRRACQSLGQGEHQQVLQAVELQGLGLSFSACSLALDQAQLTPLLRALKLHTALRELRLAGNRLGDKCVAELVAALGTMPSLALLDLSSNHLGPEGLRQLAMGLPGQATLQSLEELDLSMNPLGDGCGQSLASLLHACPLLSTLRLQACGFGPSFFLSHQTALGSAFQDAEHLKTLSLSYNALGAPALARTLQSLPAGTLLHLELSSVAAGKGDSDLMEPVFRYLAKEGCALAHLTLSANHLGDKAVRDLCRCLSLCPSLISLDLSANPEISCASLEELLSTLQKRPQGLSFLGLSGCAVQGPLGLGLWDKIAAQLRELQLCSRRLCAEDRDALRQLQPSRPGPGECTLDHGSKLFFRRL

Each molecule was assayed against T1, Flag-hRFWD3-C315A (RING domain mutated RFWD3) (human) (assay: affinity purification with mass spectrometry; anti-FLAG M2 affinity gel IP of doxycycline-induced Flag-hRFWD3-C315A (bait) from RIPA lysates with benzonase, overnight at 4 °C; HAP1 parental (SLFN11-expressing) and SLFN11 KO cells, with or without 2 mM HU for 4 h; eluted with 3X DYKDDDDK peptide; LC-MS/MS, SAINT scoring).

Row | binding | Molecule
1 | binds | DNAJC13 (from UniProt O75165 1-2243)
2 | binds | FANCD2 (from UniProt Q9BXW9 1-1451)
3 | binds | PIAS1 (from UniProt O75925 1-651)
4 | binds | YY1 (from UniProt P25490 1-414)
5 | binds | B1
6 | binds | B2

Results are given in words; binding and its absence hold for the method and conditions named. In cells and extracts the contact can be indirect. A yes stands for co-enrichment or nearness to the bait. Other partners may have been found. Tags and fused reporters may be left off the sequences shown.
